The other results are listed elsewhere or left out. Most entries show no effect beyond the scatter of the controls.
These targets were tested with CN[C@@H]1C[C@H]2O[C@@](C)([C@@H]1OC)n1c3ccccc3c3c4c(c5c6ccccc6n2c5c31)C(=O)NC4 [staurosporine] (assay: log2 fold change of pooled soluble protein (PISA), ligand vs vehicle (log2 ratio); higher = more thermally stabilized). Conditions: ligand concentration: 20 uM; assay format: PISA pool 52.9/55.5/58.6 C.

The chains behind the UniProt entries cited, without tags or fusion partners. Where a name states a change or a piece, a line headed by the entry shows the natural chain unless it says otherwise.
UniProt O88384: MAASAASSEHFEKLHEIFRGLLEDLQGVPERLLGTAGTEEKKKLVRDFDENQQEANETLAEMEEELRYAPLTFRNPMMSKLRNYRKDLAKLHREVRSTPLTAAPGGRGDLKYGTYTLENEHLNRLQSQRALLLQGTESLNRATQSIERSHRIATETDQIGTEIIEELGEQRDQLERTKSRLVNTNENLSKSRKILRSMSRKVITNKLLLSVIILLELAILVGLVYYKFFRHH
UniProt O55234: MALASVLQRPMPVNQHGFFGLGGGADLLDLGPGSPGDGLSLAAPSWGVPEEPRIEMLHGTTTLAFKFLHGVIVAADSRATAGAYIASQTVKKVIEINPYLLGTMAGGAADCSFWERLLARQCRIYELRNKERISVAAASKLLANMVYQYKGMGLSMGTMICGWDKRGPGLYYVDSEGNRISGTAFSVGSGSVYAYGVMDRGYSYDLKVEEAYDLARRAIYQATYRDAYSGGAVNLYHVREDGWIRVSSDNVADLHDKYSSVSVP
UniProt O08749: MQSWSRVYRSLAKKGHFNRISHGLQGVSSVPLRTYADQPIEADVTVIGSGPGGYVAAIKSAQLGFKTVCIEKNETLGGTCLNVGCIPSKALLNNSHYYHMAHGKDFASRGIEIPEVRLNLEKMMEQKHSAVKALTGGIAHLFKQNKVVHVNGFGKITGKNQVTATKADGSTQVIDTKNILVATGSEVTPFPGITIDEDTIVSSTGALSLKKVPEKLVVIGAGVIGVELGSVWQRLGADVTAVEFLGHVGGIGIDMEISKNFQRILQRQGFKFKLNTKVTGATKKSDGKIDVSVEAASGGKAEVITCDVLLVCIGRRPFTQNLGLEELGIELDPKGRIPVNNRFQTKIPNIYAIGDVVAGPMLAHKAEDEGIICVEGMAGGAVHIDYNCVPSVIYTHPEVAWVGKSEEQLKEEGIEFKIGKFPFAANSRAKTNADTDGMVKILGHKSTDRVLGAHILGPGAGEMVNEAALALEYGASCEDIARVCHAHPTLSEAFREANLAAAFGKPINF
UniProt O89051: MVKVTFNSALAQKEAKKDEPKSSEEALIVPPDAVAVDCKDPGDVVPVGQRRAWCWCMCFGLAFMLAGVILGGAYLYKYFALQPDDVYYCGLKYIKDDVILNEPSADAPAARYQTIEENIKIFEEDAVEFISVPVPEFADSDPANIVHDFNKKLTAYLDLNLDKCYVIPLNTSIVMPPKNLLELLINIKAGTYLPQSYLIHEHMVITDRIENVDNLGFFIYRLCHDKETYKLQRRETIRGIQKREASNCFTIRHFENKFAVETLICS
UniProt O54750: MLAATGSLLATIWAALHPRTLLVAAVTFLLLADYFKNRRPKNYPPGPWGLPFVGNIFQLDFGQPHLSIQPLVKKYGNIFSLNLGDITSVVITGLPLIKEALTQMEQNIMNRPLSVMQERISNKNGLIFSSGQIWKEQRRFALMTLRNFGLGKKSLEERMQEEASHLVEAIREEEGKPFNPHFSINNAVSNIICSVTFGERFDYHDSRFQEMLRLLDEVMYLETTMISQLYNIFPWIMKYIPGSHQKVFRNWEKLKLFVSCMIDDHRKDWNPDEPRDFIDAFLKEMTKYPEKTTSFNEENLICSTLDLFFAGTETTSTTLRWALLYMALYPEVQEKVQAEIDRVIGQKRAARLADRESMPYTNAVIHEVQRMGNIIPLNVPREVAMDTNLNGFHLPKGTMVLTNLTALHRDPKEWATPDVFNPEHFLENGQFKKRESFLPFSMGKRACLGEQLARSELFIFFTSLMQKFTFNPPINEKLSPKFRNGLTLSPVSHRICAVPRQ
UniProt O70404: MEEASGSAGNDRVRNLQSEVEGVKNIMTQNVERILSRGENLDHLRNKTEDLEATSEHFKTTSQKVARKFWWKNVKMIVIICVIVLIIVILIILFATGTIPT
UniProt O55131: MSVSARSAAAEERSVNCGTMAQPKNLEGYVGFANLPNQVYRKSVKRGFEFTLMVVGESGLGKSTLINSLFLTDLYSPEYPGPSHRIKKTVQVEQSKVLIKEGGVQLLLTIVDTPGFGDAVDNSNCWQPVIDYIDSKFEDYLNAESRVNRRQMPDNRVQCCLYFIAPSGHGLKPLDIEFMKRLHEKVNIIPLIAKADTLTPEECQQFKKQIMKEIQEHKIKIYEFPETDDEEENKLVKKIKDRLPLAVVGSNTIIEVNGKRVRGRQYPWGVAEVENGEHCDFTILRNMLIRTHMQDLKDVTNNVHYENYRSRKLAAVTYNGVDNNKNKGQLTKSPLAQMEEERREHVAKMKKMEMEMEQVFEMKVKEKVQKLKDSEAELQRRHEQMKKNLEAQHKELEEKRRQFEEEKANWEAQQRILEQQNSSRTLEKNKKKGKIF
UniProt O35226: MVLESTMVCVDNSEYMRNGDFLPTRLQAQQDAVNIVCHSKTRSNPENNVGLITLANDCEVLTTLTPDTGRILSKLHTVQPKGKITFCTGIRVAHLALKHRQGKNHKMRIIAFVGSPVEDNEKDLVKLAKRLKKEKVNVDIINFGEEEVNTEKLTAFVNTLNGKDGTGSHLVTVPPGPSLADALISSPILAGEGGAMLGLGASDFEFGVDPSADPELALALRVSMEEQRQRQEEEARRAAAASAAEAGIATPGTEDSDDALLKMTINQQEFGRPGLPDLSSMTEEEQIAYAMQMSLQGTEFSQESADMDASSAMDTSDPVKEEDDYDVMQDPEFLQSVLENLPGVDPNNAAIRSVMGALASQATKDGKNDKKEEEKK
UniProt O09053: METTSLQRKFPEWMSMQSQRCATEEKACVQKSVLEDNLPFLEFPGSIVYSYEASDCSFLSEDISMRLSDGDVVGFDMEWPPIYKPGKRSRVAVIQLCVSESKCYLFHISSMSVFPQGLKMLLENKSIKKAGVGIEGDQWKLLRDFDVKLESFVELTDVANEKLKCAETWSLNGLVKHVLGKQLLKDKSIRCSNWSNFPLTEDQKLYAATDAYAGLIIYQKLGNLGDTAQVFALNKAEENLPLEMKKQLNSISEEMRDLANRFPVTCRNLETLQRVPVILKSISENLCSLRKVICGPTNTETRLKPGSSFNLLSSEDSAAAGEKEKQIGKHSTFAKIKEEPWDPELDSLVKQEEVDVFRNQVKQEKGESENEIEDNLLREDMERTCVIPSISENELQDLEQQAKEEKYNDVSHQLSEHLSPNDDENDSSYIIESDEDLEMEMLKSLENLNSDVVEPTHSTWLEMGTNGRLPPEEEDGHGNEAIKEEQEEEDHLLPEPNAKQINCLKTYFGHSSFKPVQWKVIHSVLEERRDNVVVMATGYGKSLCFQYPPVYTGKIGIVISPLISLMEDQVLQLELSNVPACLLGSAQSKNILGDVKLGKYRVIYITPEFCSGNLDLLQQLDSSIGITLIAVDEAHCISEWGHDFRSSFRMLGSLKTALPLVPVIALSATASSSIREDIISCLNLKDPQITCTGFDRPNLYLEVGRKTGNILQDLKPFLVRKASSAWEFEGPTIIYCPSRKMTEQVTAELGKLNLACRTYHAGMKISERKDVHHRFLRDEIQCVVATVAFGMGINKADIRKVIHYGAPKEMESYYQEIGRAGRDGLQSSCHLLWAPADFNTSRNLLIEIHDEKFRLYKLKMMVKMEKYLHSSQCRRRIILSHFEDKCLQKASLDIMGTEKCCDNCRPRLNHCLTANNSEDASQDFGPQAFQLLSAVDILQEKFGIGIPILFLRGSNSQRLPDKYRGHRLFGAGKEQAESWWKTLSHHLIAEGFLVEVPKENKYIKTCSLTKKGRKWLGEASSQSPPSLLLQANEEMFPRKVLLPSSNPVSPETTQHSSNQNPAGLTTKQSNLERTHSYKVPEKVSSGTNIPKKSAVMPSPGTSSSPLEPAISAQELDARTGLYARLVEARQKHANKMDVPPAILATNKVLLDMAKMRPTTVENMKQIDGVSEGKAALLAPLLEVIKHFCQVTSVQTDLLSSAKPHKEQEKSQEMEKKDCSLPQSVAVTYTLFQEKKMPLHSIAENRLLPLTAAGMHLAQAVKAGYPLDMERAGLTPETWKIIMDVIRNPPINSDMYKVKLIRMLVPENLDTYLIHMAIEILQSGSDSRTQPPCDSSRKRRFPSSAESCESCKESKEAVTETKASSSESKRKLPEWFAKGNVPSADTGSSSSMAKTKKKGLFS
UniProt O55242, whole entry: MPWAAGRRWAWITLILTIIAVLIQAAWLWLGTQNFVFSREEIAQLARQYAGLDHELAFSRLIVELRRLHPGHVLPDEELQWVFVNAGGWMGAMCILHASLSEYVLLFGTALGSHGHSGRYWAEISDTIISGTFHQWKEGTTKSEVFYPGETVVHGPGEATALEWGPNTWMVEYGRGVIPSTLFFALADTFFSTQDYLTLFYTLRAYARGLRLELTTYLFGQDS
UniProt O08756: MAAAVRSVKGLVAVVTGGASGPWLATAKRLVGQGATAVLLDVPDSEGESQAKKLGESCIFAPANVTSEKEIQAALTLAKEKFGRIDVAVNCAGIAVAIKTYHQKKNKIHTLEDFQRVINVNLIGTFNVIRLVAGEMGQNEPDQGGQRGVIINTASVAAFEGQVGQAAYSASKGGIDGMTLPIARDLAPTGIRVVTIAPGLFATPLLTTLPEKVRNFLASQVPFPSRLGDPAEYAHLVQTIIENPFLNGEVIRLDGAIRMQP
UniProt O89026: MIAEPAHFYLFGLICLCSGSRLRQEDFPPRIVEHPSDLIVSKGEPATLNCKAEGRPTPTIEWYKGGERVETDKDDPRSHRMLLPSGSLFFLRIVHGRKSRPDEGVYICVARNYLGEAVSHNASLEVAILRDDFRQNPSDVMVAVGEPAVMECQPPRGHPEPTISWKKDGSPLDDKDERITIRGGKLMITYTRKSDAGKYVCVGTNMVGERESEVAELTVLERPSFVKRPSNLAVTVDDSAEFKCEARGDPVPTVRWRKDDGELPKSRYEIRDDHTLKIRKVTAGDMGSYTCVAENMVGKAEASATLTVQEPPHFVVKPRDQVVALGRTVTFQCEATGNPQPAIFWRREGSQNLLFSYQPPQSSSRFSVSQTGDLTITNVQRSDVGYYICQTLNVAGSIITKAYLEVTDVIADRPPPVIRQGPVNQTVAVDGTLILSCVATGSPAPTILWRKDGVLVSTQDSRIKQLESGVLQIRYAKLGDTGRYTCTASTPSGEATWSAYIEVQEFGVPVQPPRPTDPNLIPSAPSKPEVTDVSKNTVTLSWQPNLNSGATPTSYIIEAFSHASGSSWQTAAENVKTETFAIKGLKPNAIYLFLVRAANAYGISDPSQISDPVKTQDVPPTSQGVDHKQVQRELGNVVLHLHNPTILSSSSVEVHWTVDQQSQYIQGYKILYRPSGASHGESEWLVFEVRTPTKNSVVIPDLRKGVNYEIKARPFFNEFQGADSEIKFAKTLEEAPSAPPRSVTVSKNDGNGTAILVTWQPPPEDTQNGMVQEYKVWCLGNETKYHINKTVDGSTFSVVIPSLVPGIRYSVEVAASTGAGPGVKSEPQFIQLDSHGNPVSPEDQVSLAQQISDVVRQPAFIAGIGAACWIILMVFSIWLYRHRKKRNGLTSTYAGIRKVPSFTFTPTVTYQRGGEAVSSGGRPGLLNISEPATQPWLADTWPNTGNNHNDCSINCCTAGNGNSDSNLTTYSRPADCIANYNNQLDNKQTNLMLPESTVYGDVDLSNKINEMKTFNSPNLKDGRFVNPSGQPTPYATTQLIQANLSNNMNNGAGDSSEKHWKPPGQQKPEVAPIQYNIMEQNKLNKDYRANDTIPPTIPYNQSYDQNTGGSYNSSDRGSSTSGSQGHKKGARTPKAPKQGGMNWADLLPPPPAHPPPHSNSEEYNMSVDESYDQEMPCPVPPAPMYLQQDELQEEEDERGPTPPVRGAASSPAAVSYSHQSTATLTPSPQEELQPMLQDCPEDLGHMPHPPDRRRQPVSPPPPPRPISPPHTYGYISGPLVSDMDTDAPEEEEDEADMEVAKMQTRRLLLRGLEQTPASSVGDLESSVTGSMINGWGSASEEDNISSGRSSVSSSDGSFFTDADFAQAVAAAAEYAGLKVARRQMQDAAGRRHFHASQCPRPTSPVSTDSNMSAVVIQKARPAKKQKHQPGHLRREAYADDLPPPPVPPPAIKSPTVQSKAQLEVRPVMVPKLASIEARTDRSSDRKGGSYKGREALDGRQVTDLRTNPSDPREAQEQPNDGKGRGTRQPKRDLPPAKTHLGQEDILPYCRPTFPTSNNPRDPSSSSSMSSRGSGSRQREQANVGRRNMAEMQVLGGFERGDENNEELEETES
UniProt O35609: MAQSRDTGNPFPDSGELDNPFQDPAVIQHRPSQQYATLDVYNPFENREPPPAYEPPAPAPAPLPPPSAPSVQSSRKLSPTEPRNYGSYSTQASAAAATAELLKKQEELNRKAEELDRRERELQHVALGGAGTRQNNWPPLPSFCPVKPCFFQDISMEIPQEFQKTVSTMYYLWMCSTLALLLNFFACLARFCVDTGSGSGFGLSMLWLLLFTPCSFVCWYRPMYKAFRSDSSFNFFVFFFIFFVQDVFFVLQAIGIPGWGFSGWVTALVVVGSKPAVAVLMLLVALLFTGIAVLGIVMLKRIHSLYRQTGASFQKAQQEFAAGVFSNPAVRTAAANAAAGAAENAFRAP

Target | log2 fold change of pooled soluble protein
UniProt O55201 | 0.224
UniProt F8VPU2 | 0.125
UniProt O88384 | -0.0303
UniProt O55234 | 0.0375
UniProt P01837 | -0.41
UniProt O08738 | -0.151
UniProt O88712 | 0.0264
UniProt O70435 | -0.0112
UniProt O70362 | 0.0641
UniProt P00688 | 0.00871
UniProt O88962 | -0.139
UniProt O08749 | -0.0327
UniProt O89051 | 0.146
UniProt O54750 | -0.32
UniProt O70404 | -0.105
UniProt O55131 | 0.019
UniProt O35226 | -0.0669
UniProt O88428 | -0.009

Target | log2 fold change of pooled soluble protein
UniProt O54984 | -0.155
UniProt O35453 | -0.114
UniProt O09053 | -0.33
UniProt O35691 | 0.00992
UniProt O88696 | -0.217
UniProt O35841 | 0.0954
UniProt O55242 | -0.00593
UniProt O08756 | -0.00275
UniProt P00329 | 0.00166
UniProt O89026 | 0.152
UniProt O88551 | 0.0434
UniProt O08808 | 0.0218
UniProt O54909 | 0.385
UniProt O35609 | -0.0432
UniProt O35386 | 0.115
UniProt O35295 | 0.133
UniProt O88531 | -0.0988
UniProt O35657 | 0.113

Part of the list above in another layout:
UniProt P00329
  log2 fold change of pooled soluble protein = 0.00166
UniProt O89026
  log2 fold change of pooled soluble protein = 0.152

From the supplement of paper PMC12819154, “High-throughput peptide-centric local stability assay extends protein–ligand identification to membrane proteins, tissues and bacteria” (Nature Structural & Molecular Biology, 2025)
